Publication doi:10.1101/2021.08.20.457143

Amino acid sequences for entries named in this document (tags omitted). Residues count along the entry.
UniProt Q0PF16: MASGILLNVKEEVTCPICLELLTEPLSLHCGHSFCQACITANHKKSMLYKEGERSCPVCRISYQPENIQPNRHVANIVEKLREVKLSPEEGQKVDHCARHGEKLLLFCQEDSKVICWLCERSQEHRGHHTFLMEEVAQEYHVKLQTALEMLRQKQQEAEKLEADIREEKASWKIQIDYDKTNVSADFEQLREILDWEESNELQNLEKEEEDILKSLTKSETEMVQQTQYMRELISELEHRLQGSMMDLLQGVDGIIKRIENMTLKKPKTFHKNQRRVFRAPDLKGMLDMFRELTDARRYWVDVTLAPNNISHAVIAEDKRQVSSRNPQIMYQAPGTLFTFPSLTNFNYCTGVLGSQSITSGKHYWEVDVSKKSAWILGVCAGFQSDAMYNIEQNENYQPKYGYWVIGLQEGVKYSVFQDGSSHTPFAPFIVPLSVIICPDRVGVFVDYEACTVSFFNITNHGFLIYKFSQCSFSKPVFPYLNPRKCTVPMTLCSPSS
UniProt P27824, residues 21-592: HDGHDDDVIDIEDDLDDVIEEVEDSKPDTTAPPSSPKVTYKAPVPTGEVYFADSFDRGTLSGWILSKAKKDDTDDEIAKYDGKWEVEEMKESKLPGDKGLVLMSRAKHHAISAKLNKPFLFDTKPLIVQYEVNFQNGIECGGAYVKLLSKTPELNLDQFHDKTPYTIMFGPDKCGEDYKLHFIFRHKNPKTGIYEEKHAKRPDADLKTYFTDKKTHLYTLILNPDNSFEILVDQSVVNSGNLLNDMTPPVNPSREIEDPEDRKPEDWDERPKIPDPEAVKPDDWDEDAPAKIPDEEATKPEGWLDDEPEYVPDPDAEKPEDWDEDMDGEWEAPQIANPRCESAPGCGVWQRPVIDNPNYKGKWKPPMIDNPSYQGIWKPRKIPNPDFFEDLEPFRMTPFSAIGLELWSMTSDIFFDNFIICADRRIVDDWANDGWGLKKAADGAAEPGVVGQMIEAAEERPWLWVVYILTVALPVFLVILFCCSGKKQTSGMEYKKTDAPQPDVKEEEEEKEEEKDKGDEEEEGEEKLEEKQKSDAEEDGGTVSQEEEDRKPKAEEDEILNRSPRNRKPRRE
UniProt Q9UHD2: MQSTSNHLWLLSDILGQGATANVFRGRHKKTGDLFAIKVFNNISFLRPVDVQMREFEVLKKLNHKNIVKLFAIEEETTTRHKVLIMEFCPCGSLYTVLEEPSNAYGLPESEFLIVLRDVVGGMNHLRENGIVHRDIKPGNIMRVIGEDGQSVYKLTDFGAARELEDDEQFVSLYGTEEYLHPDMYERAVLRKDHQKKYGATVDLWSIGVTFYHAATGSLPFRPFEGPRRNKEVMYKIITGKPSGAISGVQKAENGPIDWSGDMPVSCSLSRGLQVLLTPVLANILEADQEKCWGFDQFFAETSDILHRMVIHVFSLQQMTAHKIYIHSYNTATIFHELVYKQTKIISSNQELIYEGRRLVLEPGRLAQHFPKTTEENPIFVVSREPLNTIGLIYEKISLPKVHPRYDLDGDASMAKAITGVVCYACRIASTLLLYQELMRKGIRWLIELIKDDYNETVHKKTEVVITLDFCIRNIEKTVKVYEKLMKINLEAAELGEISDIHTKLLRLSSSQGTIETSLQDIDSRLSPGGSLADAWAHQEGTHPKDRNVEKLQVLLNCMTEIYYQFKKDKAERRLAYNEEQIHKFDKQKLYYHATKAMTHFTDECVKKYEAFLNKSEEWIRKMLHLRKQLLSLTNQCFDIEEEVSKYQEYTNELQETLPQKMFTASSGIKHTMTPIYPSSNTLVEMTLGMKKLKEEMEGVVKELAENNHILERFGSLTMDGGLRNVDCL

B1: TGF-beta activated kinase binding protein 1 (protein, UniProt Q15750 1-504)
chain: MAAQRRSLLQSEQQPSWTDDLPLCHLSGVGSASNRSYSADGKGTESHPPEDSWLKFRSENNCFLYGVFNGYDGNRVTNFVAQRLSAELLLGQLNAEHAEADVRRVLLQAFDVVERSFLESIDDALAEKASLQSQLPEGVPQHQLPPQYQKILERLKTLEREISGGAMAVVAVLLNNKLYVANVGTNRALLCKSTVDGLQVTQLNVDHTTENEDELFRLSQLGLDAGKIKQVGIICGQESTRRIGDYKVKYGYTDIDLLSAAKSKPIIAEPEIHGAQPLDGVTGFLVLMSEGLYKALEAAHGPGQANQEIAAMIDTEFAKQTSLDAVAQAVVDRVKRIHSDTFASGGERARFCPRHEDMTLLVRNFGYPLGEMSQPTPSPAPAAGGRVYPVSVPYSSAQSTSKTSVTLSLVMPSQGQMVNGAHSASTLDEATPTLTNQSPTLTLQSTNTHTQSSSSSSDGGLFRSRPAHSLPPGEDGRVEPYVDFAEFYRLWSVDHGEQSVVTAP
B2: FAF2/UBXN3B (protein, UniProt Q96CS3 1-445)
chain: MAAPEERDLTQEQTEKLLQFQDLTGIESMDQCRHTLEQHNWNIEAAVQDRLNEQEGVPSVFNPPPSRPLQVNTADHRIYSYVVSRPQPRGLLGWGYYLIMLPFRFTYYTILDIFRFALRFIRPDPRSRVTDPVGDIVSFMHSFEEKYGRAHPVFYQGTYSQALNDAKRELRFLLVYLHGDDHQDSDEFCRNTLCAPEVISLINTRMLFWACSTNKPEGYRVSQALRENTYPFLAMIMLKDRRMTVVGRLEGLIQPDDLINQLTFIMDANQTYLVSERLEREERNQTQVLRQQQDEAYLASLRADQEKERKKREERERKRRKEEEVQQQKLAEERRRQNLQEEKERKLECLPPEPSPDDPESVKIIFKLPNDSRVERRFHFSQSLTVIHDFLFSLKESPEKFQIEANFPRRVLPCIPSEEWPNPPTLQEAGLSHTEVLFVQDLTDE
B3: NIPSNAP1 (protein, UniProt Q9BPW8 36-284)
chain: SKDNEGSWFRSLFVHKVDPRKDAHSTLLSKKETSNLYKIQFHNVKPEYLDAYNSLTEAVLPKLHLDEDYPCSLVGNWNTWYGEQDQAVHLWRFSGGYPALMDCMNKLKNNKEYLEFRRERSQMLLSRRNQLLLEFSFWNEPQPRMGPNIYELRTYKLKPGTMIEWGNNWARAIKYRQENQEAVGGFFSQIGELYVVHHLWAYKDLQSREETRNAAWRKRGWDENVYYTVPLVRHMESRIMIPLKISPLQ
B4: NIPSNAP2 (protein, UniProt O75323 24-286)
chain: CSLLPRLRTWTSSSNRSREDSWLKSLFVRKVDPRKDAHSNLLAKKETSNLYKLQFHNVKPECLEAYNKICQEVLPKIHEDKHYPCTLVGTWNTWYGEQDQAVHLWRYEGGYPALTEVMNKLRENKEFLEFRKARSDMLLSRKNQLLLEFSFWNEPVPRSGPNIYELRSYQLRPGTMIEWGNYWARAIRFRQDGNEAVGGFFSQIGQLYMVHHLWAYRDLQTREDIRNAAWHKHGWEELVYYTVPLIQEMESRIMIPLKTSPLQ
B5: SAMM50 (protein, UniProt Q9Y512 1-469)
chain: MGTVHARSLEPLPSSGPDFGGLGEEAEFVEVEPEAKQEILENKDVVVQHVHFDGLGRTKDDIIICEIGDVFKAKNLIEVMRKSHEAREKLLRLGIFRQVDVLIDTCQGDDALPNGLDVTFEVTELRRLTGSYNTMVGNNEGSMVLGLKLPNLLGRAEKVTFQFSYGTKETSYGLSFFKPRPGNFERNFSVNLYKVTGQFPWSSLRETDRGMSAEYSFPIWKTSHTVKWEGVWRELGCLSRTASFAVRKESGHSLKSSLSHAMVIDSRNSSILPRRGALLKVNQELAGYTGGDVSFIKEDFELQLNKQLIFDSVFSASFWGGMLVPIGDKPSSIADRFYLGGPTSIRGFSMHSIGPQSEGDYLGGEAYWAGGLHLYTPLPFRPGQGGFGELFRTHFFLNAGNLCNLNYGEGPKAHIRKLAECIRWSYGAGIVLRLGNIARLELNYCVPMGVQTGDRICDGVQFGAGIRFL

molecular target: rhesus (Rh) TRIM5-APEX2-V5 (rhesus macaque) (UniProt Q0PF16); experiment: proximity labelling

Molecule | binding
Calnexin (from UniProt P27824 21-592) | binds
TBK1 (from UniProt Q9UHD2 1-729) (enzyme) | binds

molecular target: rhesus (Rh) TRIM5-APEX2-V5 (rhesus macaque) (UniProt Q0PF16); experiment: proximity labelling; remark: another data set of the same source

Molecule | binding
B1 | binds
B2 | binds
B3 | binds
B4 | binds
B5 | binds

These are yes or no findings as the source states them, for the method shown. Binding seen in cells or lysates may run through a third protein. Here binding means that the protein was enriched with, or labelled near, the bait; the list need not be complete.
